PubChem BioAssay AID1508597, Cure First – 2020

Purpose: 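Survival screen with siRNA in ovarian cancer cells derived from patients, with or without rucaparib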 (primary screen)
Cells: human ovarian carcinoma lines grown from tumours: OCI-P5x (papillary serous) and OCI-C5x (clear cell)
Reagents: siRNA pool against human genes, 1.25 pmol siRNA per well
Time to read-out: 72 h or 96 h, depending on the cell culture
Conditions: rucaparib 20 µM (about IC30) or vehicle, present until read-out
Rucaparib or vehicle: Rucaparib
Cell line: OCI-C5x (clear cell)
Measurement: 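Luminescent ATP-based viability assay read 72 or 96 h after transfection, depending on culture, given as normalised percent viability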
Direction: viability, normalised: higher = more viable cells remaining
Active means: 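a well counts as a hit if its normalised viability is under 80 percent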
Meaning of the calls: active = viability under 80%; inactive = viability 80% or more
This is a random part of the about 2,100 reagents, in one setting of the screen. 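Calls flag viability under 80% in either arm, not effects specific to rucaparib; the reference for percent is not stated.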 Entries without a mark were called inactive. A reagent listed more than once was tested more than once; the source does not tell the runs apart. Not given: the 100% reference.

gene	technical replicate	viability, normalised (%)
AFF3	1	57.6 (active)
AFF3	2	50 (active)
AFF3	3	48.5 (active)
H4C1	1	46.6 (active)
H4C1	1	62.6 (active)
H4C1	2	46.6 (active)
H4C1	2	61.5 (active)
H4C1	3	39.9 (active)
H4C1	3	66.9 (active)
MTRF1	1	61 (active)
MTRF1	2	44.8 (active)
MTRF1	3	54.4 (active)
CLDN6	1	80.7
CLDN6	2	70.4 (active)
CLDN6	3	91.5
PWWP3B	1	53.5 (active)
PWWP3B	2	53.2 (active)
PWWP3B	3	52.9 (active)
STRADA	1	66.8 (active)
STRADA	2	49.3 (active)
STRADA	3	41 (active)

The list goes on (5 carried over from the part before).
gene	technical replicate	viability, normalised (%)
PWWP3B	2	53.2 (active)
PWWP3B	3	52.9 (active)
STRADA	1	66.8 (active)
STRADA	2	49.3 (active)
STRADA	3	41 (active)
HMG20A	1	61.3 (active)
HMG20A	2	57.7 (active)
HMG20A	3	69.7 (active)
GMEB2	1	38.8 (active)
GMEB2	2	37.4 (active)
GMEB2	3	55 (active)
BCL3	1	69.2 (active)
BCL3	2	58.6 (active)
BCL3	3	69.6 (active)
FXR2	1	64.2 (active)
FXR2	2	59.3 (active)
FXR2	3	58.4 (active)
ENY2	1	53.3 (active)
ENY2	2	41.7 (active)
ENY2	3	47.7 (active)
HLTF	1	58.3 (active)
HLTF	2	58.2 (active)
HLTF	3	53.6 (active)
STK32B	1	44.1 (active)
STK32B	2	48.8 (active)
STK32B	3	56.2 (active)
BRDT	1	70.1 (active)
BRDT	1	38.2 (active)
BRDT	2	58.7 (active)
BRDT	2	55.7 (active)
BRDT	3	53.7 (active)
BRDT	3	47.1 (active)
MED19	1	19.3 (active)
MED19	2	28.7 (active)
MED19	3	32 (active)
WNT4	1	77.9 (active)
WNT4	2	62.7 (active)
WNT4	3	48.8 (active)
SMPDL3B	1	57.5 (active)
SMPDL3B	2	68.2 (active)
SMPDL3B	3	43.9 (active)
